Test results published in patent publication US20090186810A1, “POTASSIUM CHANNEL MODULATORS AND PLATELET PROCOAGULANT ACTIVITY” (priority 2006, published 2009).

Tested on: collagen and thrombin activated platelets
Experiment: cells
Type: cell-based
Settings: Homo sapiens, Platelet, read-out: estimated IC50 on the platelet procoagulant response
Protocol: Platelet isolation was performed as described.^10 Briefly, 10 milliliters (mL) blood was collected in 2 mL anticoagulant ACD (80 mmol/L trisodium citrate, 52 mmol/L citric acid and 180 mmol/L glucose). Platelet rich plasma was obtained by centrifuging whole blood for 15 minutes at 200 g. Platelets were spun down at 11,500× gravity for 2 minutes using a microfuge. The platelet pellet was resuspended and washed twice with 10 mmol/L HEPES, 137 mmol/L NaCl, 2.7 mmol/L KCl, 2 mmol/L MgCl2, 5 mmol/L glucose and 0.5 mg/mL BSA, adjusted at pH 6.6); before each centrifugation step, 100 μL ACD was added to each mL resuspended platelets. Finally, platelets were resuspended in HEPES buffer at pH 7.4. Platelet count was adjusted at 2×10^8 platelets/mL. For measurement of the intracellular Ca^2+ concentration ([Ca^2+]i), platelets were loaded with Fura-2 (3 μmol/L) during 45 minutes at 37° C., prior to isolation. […]
Platelet procoagulant activity was assayed as described in more detail elsewhere.^9 Briefly, after activation of 10^7 platelets/mL with collagen (10 μg/mL) and thrombin (4 nmol/L) for 10 minutes, samples were taken and diluted to 10^6 platelets/mL in HEPES buffer containing 3 mmol/L CaCl2 and 0.5 mg/mL BSA. […] Thrombin was measured using the chromogenic substrate S2238. […]

## Clc1ccccc1C(c1ccccc1)(c1ccccc1)n1ccnc1 [clotrimazol, 1-[(2-chlorophenyl)diphenylmethyl]-1H-imidazole]
  IC50: 100 nM
